# Results from one PubChem assay

The results are deposited in PubChem (AID1159506; NCATS, 2015).

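Luminescence from an EWS-FLI1 target-promoter (NR0B1) reporter, set against a CMV-promoter reporter, two days after silencing single genes in TC32 Ewing sarcoma cells. Each siRNA was applied at 20 nM. A z-score of the log NR0B1-over-CMV signal, less the median of siRNAs with the same seed; more negative means a stronger specific loss of the NR0B1 reporter.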

The strongest results of the screen are mostly left out here. Sequences are the guide (antisense) strand, without overhang.

UAUACUCCUAUAACUCCUG against DCDC2B gave seed-corrected z-score -0.3148.
UAAUGUUUCACGGUAUCUC against HCK gave seed-corrected z-score -0.5877.
UAUCCAAUAACUCGGAAGG against DGKI gave seed-corrected z-score 0.09914.
UUCGAUUCGAGUGGUCUUC against HSP90B1 gave seed-corrected z-score 1.695.
AAUCUUCGCACAAUUGUUG against TRAF5 gave seed-corrected z-score -0.669.
AAACUUGCAAAAAUUGUUC against TP53TG3 gave seed-corrected z-score -0.03833.
UGUUUUUCACGUUCUCGGC against ZNF330 gave seed-corrected z-score 0.1347.
UCUGCACCAAGAAAUCACG against TBC1D9B gave seed-corrected z-score 0.7678.
UAUGAUCACUUGUCUAACC against GPX8 gave seed-corrected z-score -1.927.
UAUGUGAUGCCGGAGUCCU against DUSP3 gave seed-corrected z-score 0.6618.
UUUCAUGAAACGAAGCCGG against CD8B gave seed-corrected z-score 0.4606.
UUUGUAUAGACAUCAACAC against EXOC5P1 gave seed-corrected z-score 2.055.
UUAGUAUCCGCCUCAUCAG against TEP1 gave seed-corrected z-score 0.5344.
UGAGUCCAUAUGCUGCCGC against RNASE1 gave seed-corrected z-score 0.01496.
UGAAGUCACAAUCCUCUGG against CAMP gave seed-corrected z-score -0.8761.
AGUUGAAAUAGCAAAGCCC against SDHD gave seed-corrected z-score 1.597.
UUUCCAAGCCUUGUCGUCG against SNX24 gave seed-corrected z-score -0.01259.
AACCGUAAGAACACUGGUC against CDC73 gave seed-corrected z-score -0.4551.
UAUGGAAUCCUGGGAGUAC against CNOT8 gave seed-corrected z-score 0.7356.
AAGGUGAUGGGUACUGCAC against LOC643043 gave seed-corrected z-score 0.05727.
UUUGUCUUAAAUUCUACUC against SOX8 gave seed-corrected z-score -0.6023.
UCAUGUACAAGUAGUGCUC against GBF1 gave seed-corrected z-score 0.08077.
ACCUUGUAAACGUAUACGG against HIST1H2BH gave seed-corrected z-score 1.269.
UAAGGGCUUAAUGAUCUGC against IL19 gave seed-corrected z-score -0.4576.
AAAGUGCAAUUCGCUUUAC against CRCT1 gave seed-corrected z-score 0.1886.
UUCGAAAUCAAGUUGUUUC against PCDHB8 gave seed-corrected z-score -0.2643.
UAUGUGAUGAAGAAAAUUC against INSL6 gave seed-corrected z-score 1.881.
UAAACAGAUGCGUCUCUCU against FAM181A gave seed-corrected z-score 0.0487.
CAGUGUGUCCACACCAGAC against RNF224 gave seed-corrected z-score 0.7791.
ACUGGAUUAACUUCUCCUG against AKR1B1 gave seed-corrected z-score 0.3945.
UCUUCGUAAAACUAUAUCG against LNX2 gave seed-corrected z-score 0.5013.

The first 4 entries again:

| Sequence | target gene | seed-corrected z-score |
|---|---|---|
| `UAUACUCCUAUAACUCCUG` | DCDC2B | -0.3148 |
| `UAAUGUUUCACGGUAUCUC` | HCK | -0.5877 |
| `UAUCCAAUAACUCGGAAGG` | DGKI | 0.09914 |
| `UUCGAUUCGAGUGGUCUUC` | HSP90B1 | 1.695 |